# From PMC11481398
# The chains behind the UniProt entries cited, without tags or fusion partners. Where a name states a change or a piece, a line headed by the entry shows the natural chain unless it says otherwise.
# UniProt Q00534: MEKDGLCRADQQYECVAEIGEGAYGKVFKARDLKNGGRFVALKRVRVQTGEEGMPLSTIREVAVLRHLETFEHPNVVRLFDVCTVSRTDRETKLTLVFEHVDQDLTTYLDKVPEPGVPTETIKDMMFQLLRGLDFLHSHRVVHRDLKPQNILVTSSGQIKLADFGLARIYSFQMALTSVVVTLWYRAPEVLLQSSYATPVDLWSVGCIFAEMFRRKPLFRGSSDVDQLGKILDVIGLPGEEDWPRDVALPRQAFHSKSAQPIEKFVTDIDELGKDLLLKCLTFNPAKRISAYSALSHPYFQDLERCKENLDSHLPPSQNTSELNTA
# UniProt Q13619: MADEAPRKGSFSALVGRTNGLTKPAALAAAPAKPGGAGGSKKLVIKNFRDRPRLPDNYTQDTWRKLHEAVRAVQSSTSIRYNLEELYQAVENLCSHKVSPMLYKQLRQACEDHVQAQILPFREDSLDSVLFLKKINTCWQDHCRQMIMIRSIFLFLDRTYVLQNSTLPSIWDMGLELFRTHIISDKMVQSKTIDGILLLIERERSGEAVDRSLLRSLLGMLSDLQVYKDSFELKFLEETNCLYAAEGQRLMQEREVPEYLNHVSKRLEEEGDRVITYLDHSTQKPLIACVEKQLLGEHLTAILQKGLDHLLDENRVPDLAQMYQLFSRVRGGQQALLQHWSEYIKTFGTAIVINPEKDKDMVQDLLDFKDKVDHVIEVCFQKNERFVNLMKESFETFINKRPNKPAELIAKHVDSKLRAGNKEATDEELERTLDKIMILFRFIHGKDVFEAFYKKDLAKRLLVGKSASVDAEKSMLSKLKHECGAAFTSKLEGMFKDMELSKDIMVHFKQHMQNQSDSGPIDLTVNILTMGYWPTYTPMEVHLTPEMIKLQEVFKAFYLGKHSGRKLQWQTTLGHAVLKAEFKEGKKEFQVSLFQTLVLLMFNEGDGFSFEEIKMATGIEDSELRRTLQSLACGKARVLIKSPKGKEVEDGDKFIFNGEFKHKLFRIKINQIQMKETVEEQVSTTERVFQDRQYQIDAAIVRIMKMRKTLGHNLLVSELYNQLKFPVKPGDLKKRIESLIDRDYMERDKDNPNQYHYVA
# These are yes or no findings as the source states them, for the method shown. In cells and extracts the contact can be indirect. Binding calls can cover weak binding; strength is not graded here.
# Molecular target: CDK6 xLIR domain mutant (96-101 amino acid mutation) (UniProt Q00534)
# Test: co-IP; H69AR-xLIRmut cells (single clone after transfection with the CDK6 xLIR mutation plasmid) treated with PD (0.5 µM) and LEE (0.8 µM); western blot
substance,measurement,value
CUL4A (from UniProt Q13619 1-759),binding,binds
